# Laboratory results published in the supplement of paper PMC6411743.
# ± gives the standard deviation of the averaged measurements. The list shows a part of the results.
# Experiments:
# Test in all cases: NP40-soluble protein abundance relative to vehicle (solubility fold change) (ratio); higher = more soluble protein in presence of GTP
# [1] = molecular target: T1, CWF19L2 (UniProt Q2TBE0)
# T1 sequence (whole entry): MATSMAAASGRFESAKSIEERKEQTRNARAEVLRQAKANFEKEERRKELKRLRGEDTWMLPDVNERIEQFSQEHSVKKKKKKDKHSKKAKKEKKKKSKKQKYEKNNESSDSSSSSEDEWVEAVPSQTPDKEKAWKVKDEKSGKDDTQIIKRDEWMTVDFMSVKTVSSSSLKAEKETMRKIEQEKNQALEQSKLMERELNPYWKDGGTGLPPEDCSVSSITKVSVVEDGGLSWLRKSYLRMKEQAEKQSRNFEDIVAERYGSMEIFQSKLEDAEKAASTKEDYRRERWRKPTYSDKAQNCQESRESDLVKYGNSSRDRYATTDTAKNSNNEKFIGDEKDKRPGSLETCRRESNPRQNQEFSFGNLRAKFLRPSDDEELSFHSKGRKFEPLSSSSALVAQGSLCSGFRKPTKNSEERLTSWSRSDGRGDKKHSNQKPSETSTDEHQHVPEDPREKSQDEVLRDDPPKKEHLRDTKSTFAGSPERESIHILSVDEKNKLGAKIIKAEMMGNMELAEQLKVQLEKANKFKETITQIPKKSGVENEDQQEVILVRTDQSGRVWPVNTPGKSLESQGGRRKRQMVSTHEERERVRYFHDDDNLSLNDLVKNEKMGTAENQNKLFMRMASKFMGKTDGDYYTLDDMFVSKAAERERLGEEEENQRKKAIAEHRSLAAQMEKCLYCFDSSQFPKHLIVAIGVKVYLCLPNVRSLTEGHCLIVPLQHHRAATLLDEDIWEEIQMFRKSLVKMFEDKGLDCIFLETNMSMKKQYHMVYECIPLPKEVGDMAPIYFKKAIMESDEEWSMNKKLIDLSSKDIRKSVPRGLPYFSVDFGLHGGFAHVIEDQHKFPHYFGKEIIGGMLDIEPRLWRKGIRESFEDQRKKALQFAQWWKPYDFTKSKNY
# Outline: (§1)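 Jurkat crude lysate prepared with a Dounce homogeniser was treated at eight concentrations spanning 0.1 to 10 mM, 10 min at room temperature then 3 min at 37 °C. Solubilisation with 0.8% NP40 and benzonase and ultracentrifugation preceded TMT labelling of the supernatant for LC-MS/MS. Fold change against the detergent-processed vehicle was determined per replicate from vsn-normalised intensities, across three independent experiments.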
# [2] = molecular target: T2, LDLRAP1 (UniProt Q5SW96)
# T2 sequence (whole entry): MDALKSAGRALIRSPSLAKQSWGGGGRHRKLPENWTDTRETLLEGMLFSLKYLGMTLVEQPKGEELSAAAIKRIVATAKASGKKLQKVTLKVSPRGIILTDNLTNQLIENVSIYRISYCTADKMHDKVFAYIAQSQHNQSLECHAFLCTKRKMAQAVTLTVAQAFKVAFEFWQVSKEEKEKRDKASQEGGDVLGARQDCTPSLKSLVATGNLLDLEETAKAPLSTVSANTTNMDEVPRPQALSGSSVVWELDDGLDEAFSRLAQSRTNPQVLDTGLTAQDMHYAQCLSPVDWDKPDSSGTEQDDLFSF
# Outline: as §1
# [3] = molecular target: T3, PSMD6 (UniProt Q15008)
# T3 sequence (whole entry): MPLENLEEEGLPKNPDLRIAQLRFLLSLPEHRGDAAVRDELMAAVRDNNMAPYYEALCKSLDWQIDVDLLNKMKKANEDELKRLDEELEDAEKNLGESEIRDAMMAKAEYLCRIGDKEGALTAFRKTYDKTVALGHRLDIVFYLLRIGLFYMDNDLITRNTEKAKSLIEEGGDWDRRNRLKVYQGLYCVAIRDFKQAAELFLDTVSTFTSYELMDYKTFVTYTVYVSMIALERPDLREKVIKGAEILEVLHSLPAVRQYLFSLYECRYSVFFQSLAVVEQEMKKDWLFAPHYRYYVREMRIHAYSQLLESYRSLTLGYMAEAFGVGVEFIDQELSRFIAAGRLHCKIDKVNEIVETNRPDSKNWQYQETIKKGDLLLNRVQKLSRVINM
# Outline: as §1
# [4] = molecular target: T4, Q5T123 and related entries (UniProt Q9H299)
# T4 sequence (whole entry): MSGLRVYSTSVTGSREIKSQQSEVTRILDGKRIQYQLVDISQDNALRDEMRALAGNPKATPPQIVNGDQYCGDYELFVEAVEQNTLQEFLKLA
# Outline: as §1
# [5] = molecular target: T5, RABL3 (UniProt Q5HYI8)
# T5 sequence (whole entry): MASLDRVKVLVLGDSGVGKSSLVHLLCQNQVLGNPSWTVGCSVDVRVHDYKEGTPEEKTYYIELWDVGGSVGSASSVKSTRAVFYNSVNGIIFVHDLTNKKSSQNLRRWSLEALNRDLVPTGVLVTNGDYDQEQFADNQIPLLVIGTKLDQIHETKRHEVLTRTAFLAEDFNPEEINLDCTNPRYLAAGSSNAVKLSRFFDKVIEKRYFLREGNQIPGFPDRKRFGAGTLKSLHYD
# Outline: as §1
# [6] = molecular target: T6, RCN1 (UniProt Q15293)
# T6 sequence (whole entry): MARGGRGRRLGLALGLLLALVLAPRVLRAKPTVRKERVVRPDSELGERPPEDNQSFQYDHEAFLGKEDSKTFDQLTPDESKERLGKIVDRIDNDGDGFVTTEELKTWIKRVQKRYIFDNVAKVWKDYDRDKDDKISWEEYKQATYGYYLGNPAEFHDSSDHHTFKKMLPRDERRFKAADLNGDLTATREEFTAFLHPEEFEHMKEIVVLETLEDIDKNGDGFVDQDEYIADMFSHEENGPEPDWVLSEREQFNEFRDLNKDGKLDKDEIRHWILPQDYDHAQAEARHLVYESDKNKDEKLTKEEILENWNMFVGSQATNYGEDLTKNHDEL
# Outline: as §1
# [7] = molecular target: T7, TTF1 (UniProt Q15361)
# T7 sequence (whole entry): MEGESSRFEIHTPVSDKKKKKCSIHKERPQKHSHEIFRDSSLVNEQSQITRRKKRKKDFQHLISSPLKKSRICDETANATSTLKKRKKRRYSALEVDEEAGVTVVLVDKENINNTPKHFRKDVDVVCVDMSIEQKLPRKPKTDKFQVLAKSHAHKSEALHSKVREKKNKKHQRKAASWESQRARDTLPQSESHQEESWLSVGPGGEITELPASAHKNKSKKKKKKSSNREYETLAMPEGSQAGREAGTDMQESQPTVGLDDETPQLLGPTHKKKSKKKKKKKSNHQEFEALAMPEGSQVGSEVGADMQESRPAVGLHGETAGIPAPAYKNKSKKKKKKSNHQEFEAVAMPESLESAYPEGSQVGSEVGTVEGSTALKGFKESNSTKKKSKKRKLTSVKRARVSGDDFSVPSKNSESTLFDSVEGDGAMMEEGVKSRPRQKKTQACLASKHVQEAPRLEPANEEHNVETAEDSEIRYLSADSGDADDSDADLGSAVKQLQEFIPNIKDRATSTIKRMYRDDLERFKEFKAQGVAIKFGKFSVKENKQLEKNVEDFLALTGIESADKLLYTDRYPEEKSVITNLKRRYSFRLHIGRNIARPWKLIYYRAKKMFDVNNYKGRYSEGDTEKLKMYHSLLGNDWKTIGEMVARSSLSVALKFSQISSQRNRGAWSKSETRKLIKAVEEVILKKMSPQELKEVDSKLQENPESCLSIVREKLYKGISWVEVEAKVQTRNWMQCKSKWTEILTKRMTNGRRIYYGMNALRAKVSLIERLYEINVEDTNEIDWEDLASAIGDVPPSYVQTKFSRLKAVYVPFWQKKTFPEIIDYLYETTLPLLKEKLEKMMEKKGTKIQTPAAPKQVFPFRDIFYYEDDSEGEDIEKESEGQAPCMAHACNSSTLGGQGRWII
# Outline: as §1
compound,measurement,setting,value
Nc1nc2c(ncn2[C@@H]2O[C@H](COP(=O)(O)OP(=O)(O)OP(=O)(O)O)[C@@H](O)[C@H]2O)c(=O)[nH]1 [guanosine triphosphate],NP40-soluble protein abundance,[1]; concentration: 0.1mM,0.995 ± 0.02
same,NP40-soluble protein abundance,[1]; concentration: 0.5mM,1.02 ± 0.029
same,NP40-soluble protein abundance,[1]; concentration: 1mM,1.03 ± 0.022
same,NP40-soluble protein abundance,[1]; concentration: 2mM,1.06 ± 0.05
same,NP40-soluble protein abundance,[1]; concentration: 4mM,1.06 ± 0.022
same,NP40-soluble protein abundance,[1]; concentration: 6mM,1.09 ± 0.027
same,NP40-soluble protein abundance,[1]; concentration: 8mM,1.11 ± 0.077
same,NP40-soluble protein abundance,[1]; concentration: 10mM,1.1 ± 0.096
same,NP40-soluble protein abundance,[2]; concentration: 0.1mM,0.99 ± 0.097
same,NP40-soluble protein abundance,[2]; concentration: 0.5mM,0.912 ± 0.072
same,NP40-soluble protein abundance,[2]; concentration: 1mM,0.876 ± 0.1
same,NP40-soluble protein abundance,[2]; concentration: 2mM,0.798 ± 0.15
same,NP40-soluble protein abundance,[2]; concentration: 4mM,0.91 ± 0.12
same,NP40-soluble protein abundance,[2]; concentration: 6mM,0.854 ± 0.15
same,NP40-soluble protein abundance,[2]; concentration: 8mM,0.925 ± 0.066
same,NP40-soluble protein abundance,[2]; concentration: 10mM,0.866 ± 0.0087
same,NP40-soluble protein abundance,[3]; concentration: 0.1mM,1.01 ± 0.016
same,NP40-soluble protein abundance,[3]; concentration: 0.5mM,1.03 ± 0.059
same,NP40-soluble protein abundance,[3]; concentration: 1mM,1.02 ± 0.06
same,NP40-soluble protein abundance,[3]; concentration: 2mM,1.05 ± 0.11
same,NP40-soluble protein abundance,[3]; concentration: 4mM,1.04 ± 0.096
same,NP40-soluble protein abundance,[3]; concentration: 6mM,1.04 ± 0.13
same,NP40-soluble protein abundance,[3]; concentration: 8mM,1.04 ± 0.12
same,NP40-soluble protein abundance,[3]; concentration: 10mM,1 ± 0.12
same,NP40-soluble protein abundance,[4]; concentration: 0.1mM,0.93 ± 0.058
same,NP40-soluble protein abundance,[4]; concentration: 0.5mM,0.968 ± 0.08
same,NP40-soluble protein abundance,[4]; concentration: 1mM,0.903 ± 0.063
same,NP40-soluble protein abundance,[4]; concentration: 2mM,0.896 ± 0.058
same,NP40-soluble protein abundance,[4]; concentration: 4mM,0.869 ± 0.085
same,NP40-soluble protein abundance,[4]; concentration: 6mM,0.914 ± 0.05
same,NP40-soluble protein abundance,[4]; concentration: 8mM,0.924 ± 0.082
same,NP40-soluble protein abundance,[4]; concentration: 10mM,0.946 ± 0.034
same,NP40-soluble protein abundance,[5]; concentration: 0.1mM,1.01 ± 0.015
same,NP40-soluble protein abundance,[5]; concentration: 0.5mM,1.04 ± 0.016
same,NP40-soluble protein abundance,[5]; concentration: 1mM,0.975 ± 0.022
same,NP40-soluble protein abundance,[5]; concentration: 2mM,0.954 ± 0.026
same,NP40-soluble protein abundance,[5]; concentration: 4mM,0.9429 ± 0.0067
same,NP40-soluble protein abundance,[5]; concentration: 6mM,0.985 ± 0.016
same,NP40-soluble protein abundance,[5]; concentration: 8mM,0.979 ± 0.04
same,NP40-soluble protein abundance,[5]; concentration: 10mM,0.923 ± 0.011
same,NP40-soluble protein abundance,[6]; concentration: 0.1mM,0.906 ± 0.014
same,NP40-soluble protein abundance,[6]; concentration: 0.5mM,0.882 ± 0.023
same,NP40-soluble protein abundance,[6]; concentration: 1mM,0.954 ± 0.033
same,NP40-soluble protein abundance,[6]; concentration: 2mM,0.927 ± 0.063
same,NP40-soluble protein abundance,[6]; concentration: 4mM,0.909 ± 0.044
same,NP40-soluble protein abundance,[6]; concentration: 6mM,0.921 ± 0.051
same,NP40-soluble protein abundance,[6]; concentration: 8mM,0.895 ± 0.067
same,NP40-soluble protein abundance,[6]; concentration: 10mM,0.908 ± 0.028
same,NP40-soluble protein abundance,[7]; concentration: 0.1mM,1.12 ± 0.033
same,NP40-soluble protein abundance,[7]; concentration: 0.5mM,1.06 ± 0.084
same,NP40-soluble protein abundance,[7]; concentration: 1mM,1.09 ± 0.015
same,NP40-soluble protein abundance,[7]; concentration: 2mM,1.08 ± 0.045
same,NP40-soluble protein abundance,[7]; concentration: 4mM,1.09 ± 0.075
same,NP40-soluble protein abundance,[7]; concentration: 6mM,1.03 ± 0.019
same,NP40-soluble protein abundance,[7]; concentration: 8mM,1.02 ± 0.084
same,NP40-soluble protein abundance,[7]; concentration: 10mM,1.01 ± 0.068

# Copied from the results shown for reference:
compound,measurement,setting,value
Nc1nc2c(ncn2[C@@H]2O[C@H](COP(=O)(O)OP(=O)(O)OP(=O)(O)O)[C@@H](O)[C@H]2O)c(=O)[nH]1 [guanosine triphosphate],NP40-soluble protein abundance,[1]; concentration: 6mM,1.09 ± 0.027
same,NP40-soluble protein abundance,[1]; concentration: 8mM,1.11 ± 0.077
same,NP40-soluble protein abundance,[1]; concentration: 10mM,1.1 ± 0.096
same,NP40-soluble protein abundance,[2]; concentration: 0.1mM,0.99 ± 0.097
same,NP40-soluble protein abundance,[2]; concentration: 0.5mM,0.912 ± 0.072
